From doi:10.1101/2022.01.28.478199
These are yes or no findings as the source states them, for the method shown. Binding seen in cells or lysates may run through a third protein. A yes stands for co-enrichment or nearness to the bait. Other partners may have been found. No binding means not detected with the bait.

By UniProt entry, the sequences of proteins in these tests, tags left out. Where a name states a change or a piece, a line headed by the entry shows the natural chain unless it says otherwise. Residues count along the entry.
UniProt P33416, residues 45-811: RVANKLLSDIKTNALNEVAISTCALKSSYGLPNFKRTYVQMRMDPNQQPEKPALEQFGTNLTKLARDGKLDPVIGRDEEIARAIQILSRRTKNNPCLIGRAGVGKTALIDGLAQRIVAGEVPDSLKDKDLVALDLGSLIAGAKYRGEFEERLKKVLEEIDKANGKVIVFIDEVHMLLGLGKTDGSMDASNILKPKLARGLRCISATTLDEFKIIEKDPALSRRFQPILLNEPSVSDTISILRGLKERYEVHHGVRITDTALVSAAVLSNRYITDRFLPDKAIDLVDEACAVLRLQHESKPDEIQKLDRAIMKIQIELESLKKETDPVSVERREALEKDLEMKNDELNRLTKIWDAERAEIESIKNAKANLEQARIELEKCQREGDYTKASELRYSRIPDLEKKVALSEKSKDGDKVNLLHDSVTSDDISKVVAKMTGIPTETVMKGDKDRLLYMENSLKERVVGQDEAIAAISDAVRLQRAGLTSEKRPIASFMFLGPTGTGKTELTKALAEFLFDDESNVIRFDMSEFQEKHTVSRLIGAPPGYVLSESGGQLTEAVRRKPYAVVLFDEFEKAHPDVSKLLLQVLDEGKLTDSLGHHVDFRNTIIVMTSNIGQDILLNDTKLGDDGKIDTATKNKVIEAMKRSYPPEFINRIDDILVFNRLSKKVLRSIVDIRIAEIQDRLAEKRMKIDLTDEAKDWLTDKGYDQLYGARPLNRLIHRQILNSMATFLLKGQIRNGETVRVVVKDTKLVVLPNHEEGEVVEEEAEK

Tests used:
[1] = target: Hsp78-6xHis (wild-type Hsp78 with a C-terminal 6x polyhistidine-tag) (S. cerevisiae) (UniProt P33416); test: affinity purification with mass spectrometry
[2] = target: Hsp78TR-6xHis (Hsp78 E216Q/E614Q Walker B mutant with a C-terminal 6x polyhistidine-tag) (S. cerevisiae) (UniProt P33416); test: affinity purification with mass spectrometry

binding [1]: no binding
binding [2]: no binding
B1: Om45 (protein, UniProt P16547 1-393)
chain: MSSRIIVGSAALAAAITASIMVREQKAKGQRREGNVSAYYNGQEYGSSAPPQLGKLHNIKQGIKEDALSLKDALLGVSQKAREEAPKVTKRVISPEEDAQTRKQLGQKAKDSSSQSIFNWGFSEAERRKAIAIGEFDTAKKRFEEAVDRNEKELLSTVMREKKAALDRASIEYERYGRARDFNELSDKLDQQERNSNPLKRLLKNNTGDANTEEAAARSVQGWGDTAQEFGREELEEAKRNASSEPSEAQKRLDELKKIKEKGWFGYNKGEQSEQQIAERVARGLEGWGETAAQLSKDEMDDLRWNYENSKKQLDKNVSDAMDSLSKAKEDLKQYGSHWWSGWTSKVDNDKQALKDEAQKKYDEALKKYDEAKNKFKEWNDKGDGKFWSSKKD
